Experimental data taken from the supplement of paper PMC5407854, “Inhibitor of ppGalNAc-T3-mediated O-glycosylation blocks cancer cell invasiveness and lowers FGF23 levels” (eLife, 2017).
Some of the results follow. Most entries show no effect beyond the scatter of the controls.

test system: ppGalNAc-T3 sensor; assay: T3 sensor activation Q score (MG/GFP ratio z-score vs DMSO controls) (SD units); higher = more sensor activation (inhibition of ppGalNAc-T3 glycosylation); conditions: HEK293 sensor cells; 10 µM; 6 h
Description: (§1)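 Cells were treated with compound at 10 uM for 6 h, then MG/GFP ratio was read by flow cytometry (10,000 cells per well, duplicate wells). Q = (R - R_neg)/SD_neg relative to DMSO vehicle controls; the signal rises when the glycosyltransferase is inhibited.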

Structure (SMILES)	T3 sensor activation Q score
COc1ccccc1N1CCN(Cc2ccc(N(C)C)cc2)CC1	-0.25
COc1ccc(N2CCN(Cc3ccc(OC)c(C)c3)CC2)cc1	-0.19
COc1cccc(CN2CCN(C)CC2)c1	0.35
COc1ccc(Br)cc1CN1CCN(c2ccc(F)cc2)CC1	0.87
Cc1cccc(CN2CCN(C)CC2)c1	0.565
Oc1ccc(CN2CCN(c3ccccc3)CC2)cc1	0.35
Fc1ccc(N2CCN(Cc3ccc(Cl)cc3)CC2)cc1	-0.53
COc1ccc(CN2CCN(c3ccccc3)CC2)cc1Br	-0.42
Cc1cccc(CN2CCN(Cc3ccc4c(c3)OCO4)CC2)c1	-1.08
COc1ccccc1N1CCN(Cc2ccc(C)cc2C)CC1	0.1
COc1ccccc1N1CCN(Cc2cccc(Cl)c2)CC1	0.625
Cc1cccc(N2CCN(Cc3ccc4c(c3)OCO4)CC2)c1C	-0.4
CSc1ccc(CN2CCN(c3ccccc3C)CC2)cc1	0.21
CCN1CCN(Cc2cc(C)ccc2C)CC1	0.56
COc1ccccc1CN1CCN(c2cc(C)ccc2C)CC1	-0.03
Cc1ccc(C)c(CN2CCN(C)CC2)c1	0.32

Compounds shown so far containing fluorine, in the order listed:
Structure (SMILES)	T3 sensor activation Q score
COc1ccc(Br)cc1CN1CCN(c2ccc(F)cc2)CC1	0.87
Fc1ccc(N2CCN(Cc3ccc(Cl)cc3)CC2)cc1	-0.53

test system: ppGalNAc-T2 sensor; assay: T2 sensor activation Q score (MG/GFP ratio z-score vs DMSO controls) (SD units); higher = more sensor activation (inhibition of ppGalNAc-T2 glycosylation); conditions: HEK293 sensor cells; 10 µM; 6 h
Description: as §1

Structure (SMILES)	T2 sensor activation Q score
COc1ccc(CN2CCN(C)CC2)c(OC)c1	-1.02
CCc1ccc(CN2CCN(c3ccccc3F)CC2)cc1	1.33
O=C(NC(=O)c1c(F)cccc1F)Nc1ccc(Cl)cc1	-0.875
NCCc1nc(N)n[nH]1	0.185
CC(=O)c1ccc(N2CCN(Cc3cccc(F)c3)CC2)cc1	0.53
Cc1ccccc1CN1CCN(CCO)CC1	0.565
O=[N+]([O-])c1ccccc1CN1CCN(c2ccccc2)CC1	0.06
COc1ccc(N2CCN(Cc3cccc(Cl)c3Cl)CC2)cc1	0.87
CCc1ccc(C(=O)CCN(C)C)cc1	-0.695
CCN1CCN(Cc2ccc([N+](=O)[O-])cc2)CC1	-0.425
COc1ccccc1N1CCN(Cc2cc(F)ccc2F)CC1	-0.955
Cc1ccccc1CN1CCN(Cc2ccc3c(c2)OCO3)CC1	-0.75
CCOc1ccc(CN2CCN(c3ccccc3C)CC2)cc1	-0.495
COc1ccc(OC)c(CN2CCN(C)CC2)c1	-0.455
COc1ccc(Br)cc1CN1CCN(C)CC1	0.06
COc1cc(CN2CCN(Cc3ccccc3)CC2)cc(OC)c1	-0.965
COc1ccccc1N1CCN(Cc2ccccc2C)CC1	-0.175
COc1ccc(CN2CCN(c3ccccc3)CC2)c(OC)c1	-1.25
OCCN1CCN(Cc2cccc(F)c2)CC1	0.865
CN1CCN(Cc2cccc(Cl)c2)CC1	0.32

Structure (SMILES)	T2 sensor activation Q score
COc1ccc(OC)c(CN2CCN(c3ccc(Cl)cc3)CC2)c1	-0.39
c1ccc(CN2CCN(Cc3ccc4c(c3)OCO4)CC2)cc1	-0.47
C/C=C(\C)CN(C)CCc1ccccn1	-0.91
O=[N+]([O-])c1cccc(CN2CCN(c3ccccc3)CC2)c1	-0.21
COc1ccccc1N1CCN(Cc2ccc(N(C)C)cc2)CC1	0.55
COc1ccc(N2CCN(Cc3ccc(OC)c(C)c3)CC2)cc1	-0.875
COc1cccc(CN2CCN(C)CC2)c1	-0.415
COc1ccc(Br)cc1CN1CCN(c2ccc(F)cc2)CC1	1.99
Cc1cccc(CN2CCN(C)CC2)c1	0.545
Oc1ccc(CN2CCN(c3ccccc3)CC2)cc1	-0.08
Fc1ccc(N2CCN(Cc3ccc(Cl)cc3)CC2)cc1	0.59
COc1ccc(CN2CCN(c3ccccc3)CC2)cc1Br	-1.1
Cc1cccc(CN2CCN(Cc3ccc4c(c3)OCO4)CC2)c1	-0.515
COc1ccccc1N1CCN(Cc2ccc(C)cc2C)CC1	0.13
COc1ccccc1N1CCN(Cc2cccc(Cl)c2)CC1	0.08
Cc1cccc(N2CCN(Cc3ccc4c(c3)OCO4)CC2)c1C	-0.65
CSc1ccc(CN2CCN(c3ccccc3C)CC2)cc1	0.77
CCN1CCN(Cc2cc(C)ccc2C)CC1	0.965
COc1ccccc1CN1CCN(c2cc(C)ccc2C)CC1	0.64
Cc1ccc(C)c(CN2CCN(C)CC2)c1	0.225
